Assay results reported in PubChem BioAssay AID2685 (National Center for Advancing Translational Sciences (NCATS), 2010).
The other results are listed elsewhere or left out. These are further read-outs of the screen, such as a control signal, another cell line or another target. No call is given for them. Compounds called inactive in the main read-out are mostly missing here. Potencies come from curve fits of mixed quality, noted in brackets.

Assay: qHTS Assay for Lipid Storage Modulators in Drosophila S3 Cells;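 as to cell number change: cells counted by Cell Tracker Red CMTPX staining in the red channel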
Details: BODIPY lipid droplet fluorescence, 18-24 h; for cell number change: measured here: cell count max response, cells fed with added oleic acid
In short: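 Drosophila S3 cells loaded with oleic acid (400 uM, as added) and compounds at several concentrations; lipid droplets imaged by 488-nm laser-scanning cytometry, 500–530 nm intensity and object ratio to cell channel. Percent activity normalized to 20 uM Triacsin C.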

[1] = measured here: lipid fluorescence (Fed channel) AC50, cells fed with added oleic acid
[2] = measured here: cell number channel AC50, cells fed with added oleic acid

In the case of `Cn1c(N)c(C(=O)COC(=O)CCC2CCCC2)c(=O)n(C)c1=O`, the cell number change is reported as 13.8% and the AC50 [1] is reported as 651 nM [rising, single point].
For `Cn1c(Sc2ccc(Br)cc2)c(C=O)c2ccccc21`, the cell number change was -16.5%, the AC50 [2] was 2310 nM [falling, partial curve] and the AC50 [1] was 5170 nM [falling, partial curve].
With `CC(C)(C)NC(=O)CN(C(=O)C1CSC(=O)C1)c1ccccc1F` (stereo unspecified) the cell number change was 12.4% and the AC50 [2] was 731 nM [rising, single point].
In the case of `CCOc1ccc(N(CC(=O)N2CC=C(c3ccccc3)CC2)S(=O)(=O)c2c(C)noc2C)cc1`, the cell number change is reported as 26.7% and the AC50 [1] is reported as 11600 nM [rising, single point].
With `O=C(CC1SC(=O)N(c2ccccc2)C1=O)Nc1ccccc1` (stereo unspecified) the cell number change was -15.8% and the AC50 [1] was 82 nM [falling, full curve, poor fit].
With `Cc1ccc(-n2c(C)nc3c(cnn3-c3ccccc3Cl)c2=O)cc1C` the cell number change was -12.5% and the AC50 [2] was 517 nM [falling, full curve].
Compound `Cc1ccc(-c2csc(N3CCN(CCCn4c(-c5ccncc5)nc5ccccc54)CC3)n2)cc1` has a cell number change of -23%.
With `O=C(N/N=C/c1ccc(OCC2COCCO2)cc1)c1ccc(Br)cc1` (stereo unspecified) the cell number change was 80.2% and the AC50 [2] was 20.6 nM [rising, full curve, poor fit].
For `CNc1nc(Nc2ccc([N+](=O)[O-])cc2)nc(OCC(F)(F)F)n1`, the cell number change was 6.22% and the AC50 [1] was 184 nM [falling, full curve, poor fit].
With `CNC(=S)N/N=C1\CC(c2ccccc2)Oc2ccccc21` (stereo unspecified) the cell number change was 28.5% and the AC50 [1] was 35500 nM [rising, single point].
For `O=C(/C=C/c1cccc([N+](=O)[O-])c1)OCC(=O)c1ccccc1`, the cell number change was -4.78% and the AC50 [1] was 4110 nM [falling, partial curve].
In the case of `COc1ccccc1N1CCN(C(=O)c2cc(-c3ccc(Cl)cc3)on2)CC1`, the cell number change is reported as 35%, the AC50 [2] is reported as 11600 nM [rising, partial curve, poor fit] and the AC50 [1] is reported as 5170 nM [rising, partial curve].
With `CS(=O)(=O)c1nc(-c2ccccc2)c(-c2ccccc2)[nH]1` the cell number change was 31.9%, the AC50 [2] was 5800 nM [rising, full curve, poor fit] and the AC50 [1] was 5800 nM [rising, full curve].
For `O=C(c1ccc(CS(=O)Cc2ccc(Cl)cc2)o1)N1CCN(c2ccccc2)CC1` (stereo unspecified), the cell number change was 49.7% and the AC50 [2] was 16400 nM [rising, single point].
In the case of `COc1ccc(CNc2ccc([N+](=O)[O-])cc2C)cc1`, the cell number change is reported as 30% and the AC50 [1] is reported as 23100 nM [rising, single point].
In the case of `COCc1nnc(SCC(=O)Nc2cccc(Cl)c2C)n1-c1ccccc1`, the cell number change is reported as -1.82% and the AC50 [1] is reported as 651 nM [rising, single point].
In the case of `c1cncc(-c2nc(NCCCn3ccnc3)c3ccccc3n2)c1`, the AC50 [1] is reported as 116 nM [rising, full curve, poor fit].
With `O=C(Nc1nc2ccccc2s1)c1cc(-c2ccccc2)nn1-c1ccccc1` the cell number change was 8.24%, the AC50 [2] was 1840 nM [rising, partial curve] and the AC50 [1] was 2060 nM [rising, partial curve].
In the case of `CC/C(=N\NC(=O)c1cc(C)nc2ccccc12)c1ccc(C)s1`, the AC50 [1] is reported as 29100 nM [rising, single point].
For `CN1CCN(c2ccc(NC(=O)c3ccc(Cl)cc3Cl)cc2)CC1`, the cell number change was 15.2% and the AC50 [1] was 580 nM [rising, single point].
In the case of `O=C(Cn1[nH]c(=O)c2ccccc2c1=O)NC1CCCCCC1`, the AC50 [1] is reported as 2910 nM [rising, partial curve].
With `Cc1cnc(C(=O)OCC(=O)NCCCc2ccccc2)cn1` the AC50 [1] was 16400 nM [falling, partial curve].
`CCN(C(C)=O)c1cccc2ccccc12` showed a cell number change of -8.12%.
For `CCCOc1cccc(C(=O)NC(=S)Nc2cccc(NC(=O)c3ccccc3Cl)c2)c1`, the cell number change was -22.2% and the AC50 [1] was 6510 nM [rising, single point].
With `CCc1ccc(S(=O)(=O)N2c3ccc(C)cc3C3CN(C)CCC32)cc1` (stereo unspecified) the cell number change was 3.94% and the AC50 [1] was 18400 nM [falling, single point].
In the case of `O=C(CN1CCOCC1)Nc1ccccc1-c1ccccc1`, the cell number change is reported as 24.9% and the AC50 [2] is reported as 146 nM [rising, full curve, poor fit].
In the case of `CN(CCC#N)S(=O)(=O)c1ccc2c(c1)c(=O)n(C)c(=O)n2C`, the cell number change is reported as -3.91% and the AC50 [2] is reported as 1160 nM [falling, full curve].
With `CC(C)(C)NC(=O)CN(CC1CCCO1)C(=O)CNS(=O)(=O)c1ccc(F)cc1` (stereo unspecified) the AC50 [1] was 206 nM [falling, single point].
With `Cc1cccc(C)c1NC(=O)c1ccc(-n2cnnn2)cc1` the cell number change was -60.7%, the AC50 [2] was 3660 nM [falling, partial curve, poor fit] and the AC50 [1] was 92 nM [falling, full curve, poor fit].
